Laboratory results as given in the supplement of paper PMC7661543.
The effect of the compound repeats well; differences between the knockouts mostly do not.

Tested on: MDA-MB-231
Assay: relative cell number vs DMSO control (72 h) (% of DMSO); higher = less growth inhibition (more cells)
Experimental: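 QMAP-Seq: a pool of 5 breast cancer cell lines (ZR-75-1, SKBR3, HCC-38, MDA-MB-231, BT-20), each carrying 12 doxycycline-inducible Cas9 sgRNA perturbations (11 knockouts plus non-targeting sgNT), was treated with compounds for 72 h at four 10-fold doses (10 nM-10 uM or 1 nM-1 uM range). Barcodes were amplified and sequenced, and cell number was interpolated from 293T spike-in standard curves. The result is expressed as % of the median of DMSO wells. Two biological replicates.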

Cc1ccc(C(=O)N(CCCN)[C@@H](c2oc3cc(Cl)ccc3c(=O)c2Cc2ccccc2)C(C)C)cc1
Conditions	relative cell number
sgRNA knockout: sgATF3, 10 nM	20.6
sgRNA knockout: sgATF3, 100 nM	33.9
sgRNA knockout: sgATF3, 1000 nM	37.3
sgRNA knockout: sgATF3, 10000 nM	4.04
sgRNA knockout: sgATF4, 10 nM	28.6
sgRNA knockout: sgATF4, 100 nM	31
sgRNA knockout: sgATF4, 1000 nM	28.5
sgRNA knockout: sgATF4, 10000 nM	3.47
sgRNA knockout: sgATF6, 10 nM	20.7
sgRNA knockout: sgATF6, 100 nM	41.6
sgRNA knockout: sgATF6, 1000 nM	32.3
sgRNA knockout: sgATF6, 10000 nM	2.88
sgRNA knockout: sgATG7, 10 nM	21.8
sgRNA knockout: sgATG7, 100 nM	24.4
sgRNA knockout: sgATG7, 1000 nM	32.42
sgRNA knockout: sgATG7, 10000 nM	3.49
sgRNA knockout: sgERN1, 10 nM	22.4
sgRNA knockout: sgERN1, 100 nM	28.8
sgRNA knockout: sgERN1, 1000 nM	29.8
sgRNA knockout: sgERN1, 10000 nM	5.17
sgRNA knockout: sgHSF1, 10 nM	27.7
sgRNA knockout: sgHSF1, 100 nM	16.8
sgRNA knockout: sgHSF1, 1000 nM	23.6
sgRNA knockout: sgHSF1, 10000 nM	6.46
sgRNA knockout: sgHSF2, 10 nM	22.7
sgRNA knockout: sgHSF2, 100 nM	25.4
sgRNA knockout: sgHSF2, 1000 nM	31.3
sgRNA knockout: sgHSF2, 10000 nM	3.92
sgRNA knockout: sgKEAP1, 10 nM	26
sgRNA knockout: sgKEAP1, 100 nM	22.9
sgRNA knockout: sgKEAP1, 1000 nM	24.7
sgRNA knockout: sgKEAP1, 10000 nM	3.95
sgRNA knockout: sgNFE2L2, 10 nM	25.5
sgRNA knockout: sgNFE2L2, 100 nM	25.8
sgRNA knockout: sgNFE2L2, 1000 nM	27.2
sgRNA knockout: sgNFE2L2, 10000 nM	3.65
sgRNA knockout: sgSLC35F2, 10 nM	23.1
sgRNA knockout: sgSLC35F2, 100 nM	22.1
sgRNA knockout: sgSLC35F2, 1000 nM	27.6
sgRNA knockout: sgSLC35F2, 10000 nM	4.2
sgRNA knockout: sgXBP1, 10 nM	19.4
sgRNA knockout: sgXBP1, 100 nM	23
sgRNA knockout: sgXBP1, 1000 nM	27.5
sgRNA knockout: sgXBP1, 10000 nM	4.74

c1ccc2c(Oc3nc(Nc4ccc(N5CCOCC5)cc4)c4ncn(C5CCCCC5)c4n3)cccc2c1 [Purmorphamine]
Conditions	relative cell number
sgRNA knockout: sgATF3, 10 nM	92.9
sgRNA knockout: sgATF3, 100 nM	96
sgRNA knockout: sgATF3, 1000 nM	106
sgRNA knockout: sgATF3, 10000 nM	59.3
sgRNA knockout: sgATF4, 10 nM	66.8
sgRNA knockout: sgATF4, 100 nM	76.4
sgRNA knockout: sgATF4, 1000 nM	88.2
sgRNA knockout: sgATF4, 10000 nM	63.3
sgRNA knockout: sgATF6, 10 nM	115
sgRNA knockout: sgATF6, 100 nM	78.7
sgRNA knockout: sgATF6, 1000 nM	96.2
sgRNA knockout: sgATF6, 10000 nM	61.3
sgRNA knockout: sgATG7, 10 nM	106
sgRNA knockout: sgATG7, 100 nM	83.4
sgRNA knockout: sgATG7, 1000 nM	80.1
sgRNA knockout: sgATG7, 10000 nM	66.1
sgRNA knockout: sgERN1, 10 nM	76.5
sgRNA knockout: sgERN1, 100 nM	88.03
sgRNA knockout: sgERN1, 1000 nM	94.1
sgRNA knockout: sgERN1, 10000 nM	59.5
sgRNA knockout: sgHSF1, 10 nM	69.6
sgRNA knockout: sgHSF1, 100 nM	98
sgRNA knockout: sgHSF1, 1000 nM	79.8
sgRNA knockout: sgHSF1, 10000 nM	46.4
sgRNA knockout: sgHSF2, 10 nM	108.5
sgRNA knockout: sgHSF2, 100 nM	75.4
sgRNA knockout: sgHSF2, 1000 nM	76.6
sgRNA knockout: sgHSF2, 10000 nM	76.3
sgRNA knockout: sgKEAP1, 10 nM	105
sgRNA knockout: sgKEAP1, 100 nM	89.1
sgRNA knockout: sgKEAP1, 1000 nM	80.24
sgRNA knockout: sgKEAP1, 10000 nM	70.2
sgRNA knockout: sgNFE2L2, 10 nM	110
sgRNA knockout: sgNFE2L2, 100 nM	77.2
sgRNA knockout: sgNFE2L2, 1000 nM	86.8
sgRNA knockout: sgNFE2L2, 10000 nM	59.1
sgRNA knockout: sgSLC35F2, 10 nM	104
sgRNA knockout: sgSLC35F2, 100 nM	89.8
sgRNA knockout: sgSLC35F2, 1000 nM	106
sgRNA knockout: sgSLC35F2, 10000 nM	65.3
sgRNA knockout: sgXBP1, 10 nM	86.6
sgRNA knockout: sgXBP1, 100 nM	102
sgRNA knockout: sgXBP1, 1000 nM	92.1
sgRNA knockout: sgXBP1, 10000 nM	71.74

CC(C)(C#N)c1cc(Cn2cncn2)cc(C(C)(C)C#N)c1 [Anastrozole]
Conditions	relative cell number
sgRNA knockout: sgATF3, 1 nM	130
sgRNA knockout: sgATF3, 10 nM	124
sgRNA knockout: sgATF3, 100 nM	112
sgRNA knockout: sgATF3, 1000 nM	100
sgRNA knockout: sgATF4, 1 nM	129
sgRNA knockout: sgATF4, 10 nM	131
sgRNA knockout: sgATF4, 100 nM	123
sgRNA knockout: sgATF4, 1000 nM	79
sgRNA knockout: sgATF6, 1 nM	109
sgRNA knockout: sgATF6, 10 nM	101
sgRNA knockout: sgATF6, 100 nM	140
sgRNA knockout: sgATF6, 1000 nM	102
sgRNA knockout: sgATG7, 1 nM	120
sgRNA knockout: sgATG7, 10 nM	124
sgRNA knockout: sgATG7, 100 nM	116
sgRNA knockout: sgATG7, 1000 nM	98.3
sgRNA knockout: sgERN1, 1 nM	106
sgRNA knockout: sgERN1, 10 nM	97.2
sgRNA knockout: sgERN1, 100 nM	94.6
sgRNA knockout: sgERN1, 1000 nM	97.1
sgRNA knockout: sgHSF1, 1 nM	105
sgRNA knockout: sgHSF1, 10 nM	111
sgRNA knockout: sgHSF1, 100 nM	102
sgRNA knockout: sgHSF1, 1000 nM	112
sgRNA knockout: sgHSF2, 1 nM	117
sgRNA knockout: sgHSF2, 10 nM	111
sgRNA knockout: sgHSF2, 100 nM	124
sgRNA knockout: sgHSF2, 1000 nM	96.5
sgRNA knockout: sgKEAP1, 1 nM	105
sgRNA knockout: sgKEAP1, 10 nM	86.8
sgRNA knockout: sgKEAP1, 100 nM	100
sgRNA knockout: sgKEAP1, 1000 nM	109
sgRNA knockout: sgNFE2L2, 1 nM	125
sgRNA knockout: sgNFE2L2, 10 nM	123
sgRNA knockout: sgNFE2L2, 100 nM	123
sgRNA knockout: sgNFE2L2, 1000 nM	83.8
sgRNA knockout: sgSLC35F2, 1 nM	127
sgRNA knockout: sgSLC35F2, 10 nM	118
sgRNA knockout: sgSLC35F2, 100 nM	122
sgRNA knockout: sgSLC35F2, 1000 nM	89
sgRNA knockout: sgXBP1, 1 nM	123
sgRNA knockout: sgXBP1, 10 nM	101
sgRNA knockout: sgXBP1, 100 nM	102
sgRNA knockout: sgXBP1, 1000 nM	118
